No constants are given. Whether binding was seen depends on the method and setting. Binding seen in cells or lysates may run through a third protein. Here binding means that the protein was enriched with, or labelled near, the bait; the list need not be complete. A no says only that the protein was not detected with the bait. Sequences can lack the tags named with a protein.

This assay deals with T1, cytosolic region (residues 348-637) of MtlA covering the EIIA and EIIB domains, with a His tag at the N-terminus (E. coli) (UniProt P00550).
T1 sequence: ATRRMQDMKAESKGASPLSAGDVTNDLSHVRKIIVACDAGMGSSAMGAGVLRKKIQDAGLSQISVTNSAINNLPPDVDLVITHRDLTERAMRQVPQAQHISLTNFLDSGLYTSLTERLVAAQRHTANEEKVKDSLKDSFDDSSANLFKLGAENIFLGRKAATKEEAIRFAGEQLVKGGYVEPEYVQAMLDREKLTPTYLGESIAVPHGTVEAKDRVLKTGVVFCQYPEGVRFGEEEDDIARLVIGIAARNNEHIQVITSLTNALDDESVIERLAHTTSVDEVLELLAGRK
As to the kind of experiment: affinity purification with mass spectrometry; ligand fishing: E. coli MG1655 lysate mixed with purified His-tagged bait (400 ug His-MtlR or 500 ug His-MtlA(cyto)) and TALON metal affinity resin, 4 °C, 30 min, buffer A (20 mM HEPES pH 7.5, 100 mM NaCl), eluted with 150 mM imidazole; SDS-PAGE, Coomassie; band identified by MALDI-TOF peptide mass fingerprinting; only the target purified.

For the substance “histidine-containing phosphocarrier protein HPr of the PTS (endogenous) (from UniProt P0AA04 1-85)”, the binding entry is listed as “no binding”.

For the origin of these results see PMC5320558, “The general PTS component HPr determines the preference for glucose over mannitol” (Scientific Reports, 2017).
